No constants are given. Whether binding was seen depends on the method and setting. Binding seen in cells or lysates may run through a third protein. A yes stands for co-enrichment or nearness to the bait. Other partners may have been found. Where a sequence is shown, tags or fusion partners need not be part of it.
Target: T1, MoVps35-GFP (Magnaporthe oryzae) (UniProt G4N4D6)
T1 sequence: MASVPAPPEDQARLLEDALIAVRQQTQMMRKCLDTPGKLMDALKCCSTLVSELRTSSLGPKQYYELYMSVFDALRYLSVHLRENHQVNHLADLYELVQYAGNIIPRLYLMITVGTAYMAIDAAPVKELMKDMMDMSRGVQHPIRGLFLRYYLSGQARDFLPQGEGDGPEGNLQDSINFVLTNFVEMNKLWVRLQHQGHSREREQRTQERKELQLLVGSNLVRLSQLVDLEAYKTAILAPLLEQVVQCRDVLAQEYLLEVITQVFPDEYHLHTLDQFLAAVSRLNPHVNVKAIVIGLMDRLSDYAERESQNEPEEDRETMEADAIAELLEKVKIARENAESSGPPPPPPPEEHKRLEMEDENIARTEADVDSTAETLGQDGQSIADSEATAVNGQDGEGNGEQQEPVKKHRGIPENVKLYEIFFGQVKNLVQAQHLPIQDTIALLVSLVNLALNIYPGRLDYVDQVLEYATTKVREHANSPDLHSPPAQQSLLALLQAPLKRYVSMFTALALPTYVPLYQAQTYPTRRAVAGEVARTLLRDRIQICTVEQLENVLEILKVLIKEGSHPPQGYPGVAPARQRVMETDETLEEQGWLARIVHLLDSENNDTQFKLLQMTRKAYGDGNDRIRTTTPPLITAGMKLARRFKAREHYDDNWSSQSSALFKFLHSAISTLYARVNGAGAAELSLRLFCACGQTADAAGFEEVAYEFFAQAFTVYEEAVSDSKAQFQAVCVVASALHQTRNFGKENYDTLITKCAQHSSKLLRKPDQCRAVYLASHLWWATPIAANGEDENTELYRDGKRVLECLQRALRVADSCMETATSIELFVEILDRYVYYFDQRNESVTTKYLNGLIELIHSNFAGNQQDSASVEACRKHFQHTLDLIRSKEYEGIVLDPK
Test: affinity purification with mass spectrometry

The chains behind the UniProt entries cited, without tags or fusion partners. Where a name states a change or a piece, a line headed by the entry shows the natural chain unless it says otherwise.
UniProt G4MU71: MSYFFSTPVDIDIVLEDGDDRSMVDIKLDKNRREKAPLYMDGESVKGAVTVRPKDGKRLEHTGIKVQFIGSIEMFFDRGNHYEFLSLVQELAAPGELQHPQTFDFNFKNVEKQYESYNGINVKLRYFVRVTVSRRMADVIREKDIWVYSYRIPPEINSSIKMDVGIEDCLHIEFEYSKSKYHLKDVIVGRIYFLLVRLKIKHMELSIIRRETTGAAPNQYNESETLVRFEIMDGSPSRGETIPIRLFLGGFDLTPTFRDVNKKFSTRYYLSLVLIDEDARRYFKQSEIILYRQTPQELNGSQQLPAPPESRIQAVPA
UniProt G4MKD1: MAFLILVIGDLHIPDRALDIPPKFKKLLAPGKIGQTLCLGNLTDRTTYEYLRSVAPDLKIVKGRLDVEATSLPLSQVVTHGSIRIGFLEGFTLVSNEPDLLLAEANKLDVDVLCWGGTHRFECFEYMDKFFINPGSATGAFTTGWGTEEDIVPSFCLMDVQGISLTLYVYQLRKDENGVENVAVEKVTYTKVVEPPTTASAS
UniProt G4MYS1: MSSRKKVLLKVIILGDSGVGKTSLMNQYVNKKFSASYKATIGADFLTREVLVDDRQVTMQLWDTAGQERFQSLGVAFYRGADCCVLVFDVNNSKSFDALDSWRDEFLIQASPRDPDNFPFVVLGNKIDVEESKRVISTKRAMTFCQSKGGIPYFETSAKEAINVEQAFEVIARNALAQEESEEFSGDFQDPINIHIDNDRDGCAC

Substance | binding
MoVps26 (from UniProt G4MU71) | binds
MoVps29 (from UniProt G4MKD1) | binds
MoYpt7 (from UniProt G4MYS1 1-205) | binds
